# From PubChem BioAssay AID445 (National Center for Advancing Translational Sciences (NCATS), 2006)
# Some of the results follow. Shown are side measurements of this screen, not its main read-out; they come without a call. Compounds called inactive in the main read-out are mostly missing here. Potencies come from curve fits of mixed quality, noted in brackets.
# Test: IkB Signaling
# Conditions: ABC-DLBCL IkBa-CBG/CBR dual luciferase ratio (green luciferase fused to IkBa over red control in OCI-Ly3 lymphoma cells), 4 h
# In short: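 Luminescence ratio of IκBα-fused green versus native red beetle luciferase in OCI-Ly3 cells, 4 h post-doxycycline with compound; red signal alone, scaled from basal (0%) to zero light (-100%), flagged nonspecific or cytotoxic effects.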
# [1] = measured here: control luc red channel unless noted
structure (smiles),measurement,setting,value
Cc1cccc(CSc2cn(CC(=O)N3CCOCC3)c3ccccc23)c1,AC50,[1],"12.6 µM [falling, partial curve]"
COC(=O)Oc1c(Br)c(=O)oc2ccccc12,AC50,[1],"25.1 µM [falling, single point]"
Cc1ccc(N2C(=O)CS(=O)(=O)C23C(=O)Nc2ccccc23)cc1C (configuration not stated),AC50,[1],"31.6 µM [falling, single point]"
CCOC(=O)N1CCC(NC(=O)c2ccc3c(c2)N(Cc2ccccc2C)C(=O)c2ccccc2S3=O)CC1 (configuration not stated),AC50,[1],"12.6 µM [falling, partial curve]"
Cc1ccc(-n2[nH]c(C)c(/C=N/c3ccccn3)c2=O)cc1,AC50,[1],"3.98 µM [falling, full curve, poor fit]"
CN(Cc1nc(-c2ccc(Cl)cc2)no1)S(=O)(=O)c1ccccc1,AC50,[1],"31.6 µM [falling, single point]"
CC(C)c1ccc(C2CC(=O)Nc3cc4c(cc32)OCCO4)cc1 (configuration not stated),AC50,[1],"25.1 µM [falling, single point]"
COc1ccc(N2CCN(C(=O)Nc3cn(CC(C)C)c(=O)c4ccccc34)CC2)cc1,AC50,[1],"0.398 µM [falling, full curve, poor fit]"
COc1ccc(-n2c(SCC(=O)Nc3nccs3)nc3sc4c(c3c2=O)CCN(C)C4)cc1,AC50,[1],"12.6 µM [falling, partial curve]"
Cc1c(Cl)cccc1NC(=O)c1cc(-c2ccc3c(c2)OCO3)on1,AC50,[1],"39.8 µM [falling, partial curve]"
Cc1nn(-c2ccccc2)c(OC(=O)c2ccccc2)c1S(=O)(=O)c1ccccc1,AC50,[1],"25.1 µM [falling, partial curve, poor fit]"
O=C(Nc1ccc2c(c1)OCO2)c1ccc(COc2ccc3c(c2)CCC3)o1,AC50,[1],"6.31 µM [falling, partial curve]"
COc1c(Cl)cc(C(=O)Nc2cc(-c3nc4ccccc4[nH]3)ccc2C)cc1Cl,AC50,[1],"15.8 µM [falling, single point]"
Cc1cccc(Cn2c(=O)n(CCCCC(=O)NCc3ccc4c(c3)OCO4)c(=O)c3ccccc32)c1,AC50,[1],"15.8 µM [falling, partial curve]"
COc1cccc(N2CC(O)Cn3c2nc2c3c(=O)n(CCCc3ccccc3)c(=O)n2C)c1 (configuration not stated),AC50,[1],"25.1 µM [falling, partial curve]"
Cc1ccc(NC(=O)/C(C#N)=C/c2ccccc2Cl)cc1C,AC50,measured here: IkB-luc green channel,"3.98 µM [rising, full curve]"
same,AC50,measured here: control luc red channel,"6.31 µM [rising, single point]"
COc1ccccc1OCCCCn1c(C2CC(=O)N(c3ccccc3Cl)C2)nc2ccccc21 (configuration not stated),AC50,[1],"15.8 µM [falling, partial curve]"
CN(Cc1ccccc1)Cc1c(O)ccc2c(=O)c(-c3ccccc3)c(C(F)(F)F)oc12,AC50,[1],"39.8 µM [falling, single point]"
CCN(C(=O)c1sc2cc(OC)ccc2c1Cl)c1ccccc1,AC50,[1],"20 µM [falling, partial curve]"
Cc1ccc(NC(=O)CN2c3ccccc3S(=O)(=O)c3ccccc32)cc1F,AC50,[1],"31.6 µM [falling, partial curve]"
Cc1cccc(-c2nnc(NC(=O)c3ccc(Cl)cc3)o2)c1,AC50,[1],"3.98 µM [rising, full curve] [measured here: IkB-luc green channel]"
O=C(NCc1ccc(F)cc1)C1CCN(S(=O)(=O)c2ccc3c(c2)CCCN3C(=O)C2CCC2)CC1,AC50,[1],"39.8 µM [falling, single point]"
Cc1ccccc1C(=O)Oc1cc(-c2ccc3c(c2)OCO3)cc(=O)c2c(C)oc(C)c12,AC50,[1],"10 µM [falling, partial curve]"
O=C(COc1ccccc1Cl)N(Cc1ccco1)Cc1ccco1,AC50,[1],"25.1 µM [falling, single point]"
c1cc2c3c(c1)c1c(n3CCNC2)CCCC1,AC50,[1],"39.8 µM [falling, partial curve]"
Cc1ccc(S(=O)(=O)c2cnc(SCC(=O)Nc3ccccc3C(F)(F)F)[nH]c2=O)cc1C,AC50,[1],"12.6 µM [falling, partial curve]"
Cc1ccc(Cl)cc1NC(=O)c1cc2c(=O)n3cccc(C)c3nc2n1C,AC50,[1],"12.6 µM [falling, partial curve, poor fit]"
Cc1cc(C)cc(NC(=O)C2CCCN(c3cnccn3)C2)c1 (configuration not stated),AC50,[1],"20 µM [falling, single point]"
Cc1ccc(CNc2nc3ccccc3n3nnnc23)cc1,AC50,[1],"0.251 µM [falling, full curve]"
COc1ccccc1N1CCN(S(=O)(=O)c2c(C)sc3ncn(CC(=O)Nc4ccc(C(C)C)cc4)c(=O)c23)CC1,AC50,[1],"3.16 µM [falling, full curve]"
Cc1ccc(N2CCN(C(=O)c3ccc(Nc4nc5ccccc5n5nnnc45)cc3)CC2)c(C)c1,AC50,[1],"3.98 µM [falling, full curve]"
COC(=O)c1c(NC(=O)CCc2ccc(C)o2)sc(C)c1C,AC50,[1],"15.8 µM [falling, partial curve]"
Cc1ccc2ncc(S(=O)(=O)c3ccccc3)c(N3CCCCC3C)c2c1 (configuration not stated),AC50,[1],"25.1 µM [falling, single point]"
CCS(=O)(=O)N1CCN(Cc2ccncc2)CC1,AC50,[1],"316 nM [rising, full curve] [measured here: IkB-luc green channel]"
COc1ccc(C2=NC3(CCCCCC3)N(CC(=O)Nc3ccc(C)c(C)c3)C2=O)cc1,AC50,[1],"10 µM [falling, partial curve]"
COc1ccc(CNC(=O)CN(c2cc(C(F)(F)F)ccc2Cl)S(C)(=O)=O)cc1,AC50,[1],"12.6 µM [falling, partial curve]"
CCn1c(C)c(C)c2cc(C(=O)NCc3ccc(N(C)C)cc3)ccc21,AC50,[1],"126 nM [rising, full curve, poor fit] [measured here: IkB-luc green channel]"
Cc1ccc(C(=O)c2oc3ccccc3c2NC(=O)c2cc(-c3ccc(Cl)cc3)on2)cc1,AC50,[1],"5.01 µM [falling, partial curve]"
CCOC(=O)C1CCCN(C(=O)c2sc3nc(-c4ccc(F)cc4)cn3c2C)C1 (configuration not stated),AC50,[1],"20 µM [falling, partial curve]"
Cc1ccccc1Nc1sc(C(=O)c2ccc(F)cc2)c(N)c1C(=O)NCCc1ccccc1,AC50,[1],"12.6 µM [falling, single point]"
Cc1cccc(N2CCN(C(=O)C34CC5CC(CC(C5)C3)C4)CC2)c1C,AC50,[1],"39.8 µM [falling, single point]"
Cc1nc(-c2ccc(S(=O)(=O)N3CCN(c4cccc(Cl)c4)CC3)cc2)co1,AC50,[1],"39.8 µM [falling, partial curve, poor fit]"
CC(=O)c1cccc(NC(=O)c2sc(-n3nc(C)c(CCC(C)C)c3C)nc2C)c1,AC50,[1],"6.31 µM [falling, partial curve]"
COc1ccc(NS(=O)(=O)c2ccc3c(c2)Cc2ccccc2-3)cn1,AC50,[1],"10 µM [falling, partial curve]"
CC(=O)Nc1ccc(S(=O)(=O)NCC2CCC(C(=O)NCc3ccccc3Cl)CC2)cc1 (configuration not stated),AC50,[1],"6.31 µM [falling, partial curve, poor fit]"
CSc1ccc(CNC(=O)Cc2csc3ccccc23)cc1,AC50,[1],"12.6 µM [falling, partial curve]"
CC(=O)NCCNc1nc2c(-c3cccc(C)c3)nnn2c2ccc(Cl)cc12,AC50,[1],"0.251 µM [falling, full curve]"
C1=CC2c3ccccc3NC(c3ccncc3)C2C1 (configuration not stated),AC50,[1],"39.8 µM [rising, single point] [measured here: IkB-luc green channel]"
CCCCNc1ncnc2c1cnn2-c1ccccc1,AC50,[1],"12.6 µM [falling, partial curve]"
COc1ccc(-n2nnnc2C2CCN(S(=O)(=O)c3ccc(F)cc3Cl)CC2)cc1,AC50,[1],"12.6 µM [falling, partial curve]"
COc1ccc2c(CNC3CCCC3)c(C(=O)O)n(Cc3ccccc3C)c2c1,AC50,[1],"15.8 µM [falling, partial curve]"
CCc1nn2c(=O)cc(COC(=O)c3cccc(NC(=O)c4ccccc4C)c3)nc2s1,AC50,[1],"7.94 µM [falling, partial curve]"
Cc1cc(C)c2c(=O)cc(C(=O)Nc3sc4c(c3C#N)CCCC4)oc2c1,AC50,[1],"7.94 µM [falling, full curve]"
Cc1ccccc1NC(=O)CN1C(=O)C2(SCC(=O)N2c2ccc(F)cc2)c2ccccc21 (configuration not stated),AC50,[1],"39.8 µM [falling, single point]"
O=C(Nc1cc(C(F)(F)F)ccc1Cl)c1noc2c1CCCCC2,AC50,[1],"7.94 µM [falling, full curve]"
COC(=O)c1[nH]c2cc(C)ccc2c1NC(=O)CN1CCN(c2ccccc2OC)CC1,AC50,[1],"15.8 µM [falling, partial curve]"
COC(=O)C1=C(CN2CCCc3ccccc32)NC(=O)NC1c1ccc(F)cc1 (configuration not stated),AC50,[1],"25.1 µM [falling, partial curve, poor fit]"
CCn1cc(C(=O)NCCc2ccc(OC)c(OC)c2)c(=O)c2cc(S(=O)(=O)N3CCOCC3)ccc21,AC50,[1],"2.51 µM [rising, full curve]"
CC1CCN(S(=O)(=O)c2ccc3c(ccn3CC(=O)NCc3ccccc3F)c2)CC1,AC50,[1],"5.01 µM [falling, partial curve]"
COc1cccc(CNC(=O)c2ccc3c(c2)nc2n3CCOC2)c1OC,AC50,[1],"0.00794 µM [rising, full curve, poor fit]"
Cc1cccc(-n2nnc(-c3nc(-c4ccccc4)no3)c2N)c1C,AC50,[1],"1.26 µM [falling, full curve]"

# A section from further up, for reference:
structure (smiles),measurement,setting,value
CCc1nn2c(=O)cc(COC(=O)c3cccc(NC(=O)c4ccccc4C)c3)nc2s1,AC50,[1],"7.94 µM [falling, partial curve]"
Cc1cc(C)c2c(=O)cc(C(=O)Nc3sc4c(c3C#N)CCCC4)oc2c1,AC50,[1],"7.94 µM [falling, full curve]"
Cc1ccccc1NC(=O)CN1C(=O)C2(SCC(=O)N2c2ccc(F)cc2)c2ccccc21 (configuration not stated),AC50,[1],"39.8 µM [falling, single point]"
O=C(Nc1cc(C(F)(F)F)ccc1Cl)c1noc2c1CCCCC2,AC50,[1],"7.94 µM [falling, full curve]"
COC(=O)c1[nH]c2cc(C)ccc2c1NC(=O)CN1CCN(c2ccccc2OC)CC1,AC50,[1],"15.8 µM [falling, partial curve]"
